Reference: patent US20150004162A1
Results are given in words; binding and its absence hold for the method and conditions named. Some results given as binding are weak or reduced against the parent protein; the word gives no strength. Tags and fused reporters may be left off the sequences shown.

Amino acid sequences for entries named in this document (tags omitted). Residues count along the entry.
UniProt P50591, residues 114-281: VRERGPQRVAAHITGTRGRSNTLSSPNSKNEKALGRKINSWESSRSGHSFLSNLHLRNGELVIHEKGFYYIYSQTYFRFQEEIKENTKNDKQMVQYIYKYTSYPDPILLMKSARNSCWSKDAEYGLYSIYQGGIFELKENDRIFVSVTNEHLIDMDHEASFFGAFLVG

Tests used:
[1] = target: T1, Rhesus (NHP-2) DR4-Fc (Rhesus) (UniProt F6TP00); assay: ELISA on coated NHP-2 DR4-Fc, detection with Streptavidin-HRP [panel C]
T1 sequence: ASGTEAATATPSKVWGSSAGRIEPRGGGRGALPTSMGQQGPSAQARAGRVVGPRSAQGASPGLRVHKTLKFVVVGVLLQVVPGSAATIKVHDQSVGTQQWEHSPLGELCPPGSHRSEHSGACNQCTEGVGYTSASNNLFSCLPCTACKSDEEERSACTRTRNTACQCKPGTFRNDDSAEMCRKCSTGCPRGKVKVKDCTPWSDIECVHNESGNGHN

mouse DR5-Fc (mouse) [2] = target: T2, mouse DR5-Fc (mouse) (UniProt Q9QZM4); assay: ELISA, 100 ng/well mouse DR5-Fc, 10 nM biotinylated TRAIL, detection HRP-Streptavidin
T2 sequence (looked up): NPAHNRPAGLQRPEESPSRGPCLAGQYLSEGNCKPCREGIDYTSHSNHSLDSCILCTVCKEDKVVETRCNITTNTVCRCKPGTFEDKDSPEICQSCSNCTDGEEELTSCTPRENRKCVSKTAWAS

mouse DR5-Fc (mouse) [3] = target: T2, mouse DR5-Fc (mouse); assay: ELISA with biotinylated TRAIL on coated mouse DR5-Fc (Example 7, FIG. 5)

binding [1]: binds | binding (mouse DR5-Fc (mouse) [2]): binds | binding (mouse DR5-Fc (mouse) [3]): binds
Substance: biotinylated TRAIL (from UniProt P50591 114-281) (ligand)
